# Measured values published in PubChem BioAssay AID2685 (National Center for Advancing Translational Sciences (NCATS), 2010).
# Some of the results follow. Shown are side measurements of this screen, not its main read-out; they come without a call. Compounds called inactive in the main read-out are mostly missing here. The note in brackets gives the kind of curve behind each potency; many fits are weak.
# Experiment: qHTS Assay for Lipid Storage Modulators in Drosophila S3 Cells;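 for cell number change: cells counted by Cell Tracker Red CMTPX staining in the red channel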
# Conditions: BODIPY lipid droplet fluorescence, 18-24 h; for cell number change: measured here: cell count max response, cells fed with added oleic acid
# In short: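 Laser-scanning cytometry quantifies lipid droplet accumulation (500–530 nm total intensity; droplet/cell object ratio) in oleic acid-fed (400 uM added) Drosophila S3 cells treated with a concentration series. 20 uM Triacsin C defined 100% inhibition.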
# [1] = measured here: cell number channel AC50, cells fed with added oleic acid
# [2] = measured here: lipid fluorescence (Fed channel) AC50, cells fed with added oleic acid
compound,measurement,setting,value
O=C(Nn1c(-c2ccccc2)nc2ccccc2c1=O)c1ccc([N+](=O)[O-])cc1,AC50,[1],"0.731 µM [rising, partial curve, poor fit]"
same,AC50,[2],"0.731 µM [rising, partial curve, poor fit]"
CCOc1ccc(OCCSc2nc(C)cc(=O)[nH]2)cc1,cell number change,,6.4%
same,AC50,[2],"0.13 µM [falling, full curve, poor fit]"
O=C(O)c1cc(N/N=C/C(Cl)=C/c2ccccc2)ccc1Cl,cell number change,,-19.8%
CC1(C)c2ccccc2N(CC(N)=O)C12C=Cc1ccccc1O2 (centres undefined),cell number change,,-25.8%
same,AC50,[1],"0.82 µM [falling, full curve, poor fit]"
same,AC50,[2],"0.92 µM [falling, full curve, poor fit]"
COc1ccc([C@H]2CC(=O)C=C(c3ccc(Oc4ccccc4)cc3)C2)cc1OC,cell number change,,-46.7%
same,AC50,[1],"5.17 µM [falling, single point]"
COc1ccc(C)cc1NS(=O)(=O)c1ccc(Br)s1,cell number change,,26.8%
same,AC50,[2],"0.651 µM [falling, single point]"
CCOC(=O)C1=Nc2ccccc2C1=[N+]=[N-],AC50,[1],"0.116 µM [rising, full curve, poor fit]"
COc1ccccc1C(=O)N/C(=C\c1ccccc1)C(=O)NC(C)C(=O)O (centres undefined),cell number change,,-13.1%
same,AC50,[2],"16.4 µM [falling, single point]"
N#Cc1ccc(C(=O)N/N=C/c2cn(CC(=O)O)c3ccccc23)c(F)c1,cell number change,,2.09%
same,AC50,[2],"7.31 µM [rising, partial curve]"
Cc1cc(S(=O)(=O)NCCN2CCOCC2)c(C)s1,cell number change,,-79.6%
same,AC50,[1],"18.4 µM [falling, single point]"
same,AC50,[2],"29.1 µM [falling, single point]"
Cc1ccc(NC(=O)CNc2ccc(N3CCOCC3)cc2)cc1S(=O)(=O)N(C)C,cell number change,,-18.9%
O=C(CNC(=O)c1ccco1)N/N=C/c1cc(Br)ccc1O,cell number change,,25.7%
same,AC50,[2],"29.1 µM [falling, single point]"
Cc1ccccc1NC(=O)c1nc[nH]c1C(=O)NCc1ccccc1,cell number change,,-8.28%
COc1ccc(CCN(C(=O)C(F)(F)F)C(C(=O)NC2CCCCC2)c2cccs2)cc1 (centres undefined),cell number change,,-30.3%
same,AC50,[1],"14.6 µM [falling, single point]"
Cc1ccc(CNC(=O)CNS(=O)(=O)c2ccc(Br)s2)cc1,cell number change,,17%
same,AC50,[2],"29.1 µM [rising, single point]"
CCCOc1ccc(N)cc1N,cell number change,,33.5%
same,AC50,[1],"3.26 µM [rising, full curve]"
same,AC50,[2],"4.11 µM [rising, full curve]"
Cc1ccc(OC(=O)CCNC(=O)c2ccccc2Cl)c(Br)c1,cell number change,,-10.4%
COc1ccc(S(=O)(=O)N2CCN(C(=O)C3CCCO3)CC2)cc1 (centres undefined),cell number change,,17.8%
same,AC50,[2],"29.1 µM [rising, partial curve, poor fit]"
O=C(CSc1nc2ccccc2nc1N1CCOCC1)Nc1ccccc1F,cell number change,,-5.19%
same,AC50,[2],"1.03 µM [falling, full curve]"
Cc1ccc(NC(=O)Cc2ccc(-c3ccccc3)cc2)nc1,cell number change,,21.8%
same,AC50,[2],"10 µM [rising, partial curve]"
Cn1c(OCc2cccnc2)nc2c1c(=O)n(Cc1ccc(F)cc1)c(=O)n2C,cell number change,,6.9%
same,AC50,[1],"6.51 µM [rising, single point]"
Cc1cc(OCCn2ccnc2)cc(C)c1Cl,cell number change,,-36.7%
same,AC50,[1],"5.8 µM [falling, full curve, poor fit]"
O=c1ccc(S(=O)(=O)N2CCC(Cc3ccccc3)CC2)c[nH]1,cell number change,,14.4%
same,AC50,[1],"0.259 µM [falling, full curve]"
same,AC50,[2],"1.16 µM [falling, full curve]"
COc1cc(CCC(=O)OCC(=O)NC(=O)c2ccc(Cl)cc2)cc(OC)c1OC,cell number change,,41.9%
same,AC50,[1],"29.1 µM [rising, single point]"
CON=C1CCN(c2ncc(C(F)(F)F)cc2Cl)CC1,cell number change,,-17.9%
same,AC50,[2],"23.1 µM [falling, single point]"
COc1cccc2cc(C(=O)C3=C(O)C(=O)N(CCN(C)C)C3c3ccc(F)cc3)oc12 (centres undefined),cell number change,,11.9%
same,AC50,[2],"0.82 µM [rising, full curve, poor fit]"
O=C1C=C(c2cccc(Cl)c2O)C[C@@H](c2ccc(Cl)cc2)C1,cell number change,,4.36%
same,AC50,[1],"0.517 µM [falling, full curve]"
same,AC50,[2],"1.16 µM [falling, full curve]"
CCOc1ccc(S(=O)(=O)N2CCN(c3ccc(OC)cc3)CC2)c2cccnc12,cell number change,,32.3%
same,AC50,[1],"0.517 µM [rising, full curve, poor fit]"
same,AC50,[2],"29.1 µM [falling, single point]"
COc1ccc(CNC(=O)CN2C(=O)CC(c3ccccc3)=Nc3ccccc32)cc1,cell number change,,-16.1%
Cc1ccc(C)c(S(=O)(=O)Nc2ccc(C(=O)N3CCC3)cc2)c1,cell number change,,-9.67%
Cc1cccc(NC(=O)c2sc3nc(N)c(C#N)cc3c2N)c1,cell number change,,-21%
Cc1cc(C)nc(N2CCC(C(=O)NCCc3ccc(F)cc3)CC2)n1,cell number change,,-6.05%
same,AC50,[2],"4.11 µM [rising, full curve, poor fit]"
Cc1nn(CC#N)c(=O)n1-c1ccccc1F,cell number change,,6.44%
same,AC50,[2],"0.164 µM [falling, full curve]"
O=C1CC(c2ccccc2)CN1S(=O)(=O)c1ccccc1 (centres undefined),AC50,[2],"2.06 µM [falling, partial curve]"
O=C(NCc1ccco1)N1c2ccccc2Sc2ccccc21,cell number change,,40.8%
same,AC50,[1],"20.6 µM [rising, single point]"
same,AC50,[2],"0.146 µM [falling, single point]"
CC1C(=O)C(C)C(c2ccc3c(c2)OCO3)NC1c1ccc2c(c1)OCO2 (centres undefined),cell number change,,-35.7%
same,AC50,[1],"14.6 µM [falling, partial curve, poor fit]"
same,AC50,[2],"14.6 µM [falling, partial curve, poor fit]"
O=C(N/N=C/c1ccc(N2CCOCC2)cc1)C1COc2ccccc2O1 (centres undefined),cell number change,,-62.7%
same,AC50,[1],"32.6 µM [falling, partial curve, poor fit]"
COc1ccc(C2SCC(=O)N2c2c(C)n(C)n(-c3ccccc3)c2=O)cc1 (centres undefined),cell number change,,51.3%
same,AC50,[1],"5.8 µM [rising, full curve, poor fit]"
same,AC50,[2],"29.1 µM [rising, single point]"
COc1ccc(/C=C(\NC(=O)c2ccc([N+](=O)[O-])cc2)C(=O)NCCCn2ccnc2)cc1,cell number change,,7.5%
same,AC50,[2],"1.16 µM [falling, single point]"
Cc1ccccc1C(=O)Nc1cccc(C(=O)Nc2ccccc2C(=O)O)c1,cell number change,,-4.5%
same,AC50,[2],"29.1 µM [rising, single point]"
NC(=O)c1ccc(/C(N)=N/S(=O)(=O)c2cc(C(F)(F)F)cc(C(F)(F)F)c2)cc1,cell number change,,21.2%
Cc1cc(S(=O)(=O)N2CCOCC2)ccc1OCC(=O)NCc1ccccn1,cell number change,,12.1%
same,AC50,[2],"0.13 µM [falling, full curve]"
O=C(CNC(=O)c1ccc(S(=O)(=O)N2CCCC2)cc1)N/N=C/c1ccc(Cl)cc1Cl,cell number change,,22.7%
same,AC50,[2],"3.66 µM [rising, single point]"
CN(C)c1nnnn1-c1cccc(Oc2ncc(C(F)(F)F)cc2Cl)c1,cell number change,,16.1%
O=C(Nc1ccccc1C(=O)NCCN1CCOCC1)c1cccc([N+](=O)[O-])c1,cell number change,,-17.4%
same,AC50,[1],"3.16 µM [falling, single point]"
same,AC50,[2],"35.5 µM [falling, single point]"
COc1ccc(-c2csc(NC(=O)CS(=O)(=O)c3ccc(F)cc3)n2)cc1OC,cell number change,,97%
same,AC50,[1],"9.2 µM [rising, partial curve]"
Cc1sc(NC(=O)c2ccco2)c(CN2CCN(Cc3ccccc3)CC2)c1C,AC50,[2],"29.1 µM [falling, single point]"
CCC(CC)C(=O)Nc1cccc(C(=O)Nc2nccs2)c1,cell number change,,9.26%
CC(=O)Oc1ccc(C(=O)Nc2ccccc2C(=O)Nc2cccc(C(=O)O)c2)cc1,cell number change,,-1.1%
same,AC50,[2],"29.1 µM [rising, single point]"
CN(C)c1nc(N/N=C/c2c[nH]c3ccccc23)nc(N2CCOCC2)n1,cell number change,,15.3%
C=CCc1c(Cl)nc(C)nc1NCc1ccccc1,AC50,[2],"6.51 µM [rising, single point]"
Cc1ccc(/C=C/C(=O)NCCc2c[nH]c3ccccc23)o1,AC50,[2],"0.731 µM [falling, single point]"
NS(=O)(=O)c1ccc(NC(=O)CSc2ccc3ccccc3n2)cc1,AC50,[1],"2.06 µM [rising, partial curve, poor fit]"
same,AC50,[2],"16.4 µM [falling, single point]"
N#Cc1ccc(NC(=S)NC(=O)CCc2ccc(S(=O)(=O)N3CCOCC3)cc2)cc1,cell number change,,19%
same,AC50,[2],"2.31 µM [falling, single point]"
O=Cc1c[nH]c2ccc(S(=O)(=O)N3CCOCC3)cc12,cell number change,,2.52%
same,AC50,[2],"0.116 µM [rising, full curve, poor fit]"
CCN(CC)S(=O)(=O)c1ccc(=O)[nH]c1,cell number change,,-39.8%
same,AC50,[1],"0.326 µM [falling, full curve]"
same,AC50,[2],"0.651 µM [falling, full curve]"
CCNC(=S)NN=C1CCC(C(C)(C)C)CC1 (centres undefined),cell number change,,-125%
same,AC50,[1],"20.6 µM [falling, single point]"
CCOc1cc(NC(=S)NCC2CCCO2)c(OCC)cc1NC(=O)c1cccc(F)c1 (centres undefined),AC50,[1],"0.184 µM [falling, full curve, poor fit]"
same,AC50,[2],"0.164 µM [falling, full curve, poor fit]"
O=C(CO/N=C/c1cccc([N+](=O)[O-])c1)Nc1ccc2ccccc2c1,cell number change,,44%
same,AC50,[1],"11.6 µM [rising, partial curve, poor fit]"
O=C(Nc1ccc(F)c([N+](=O)[O-])c1)C1CC(=O)N(Cc2ccccc2)C1 (centres undefined),cell number change,,-4.53%

# Another view of some results above:
compound | measurement | setting | value
Cc1ccc(NC(=O)Cc2ccc(-c3ccccc3)cc2)nc1 | AC50 | [2] | 10 µM [rising, partial curve]
O=c1ccc(S(=O)(=O)N2CCC(Cc3ccccc3)CC2)c[nH]1 | AC50 | [1] | 0.259 µM [falling, full curve]

# 4 consecutive entries already listed, for reference:
compound,measurement,setting,value
Cc1ccc(CNC(=O)CNS(=O)(=O)c2ccc(Br)s2)cc1,AC50,[2],"29.1 µM [rising, single point]"
CCCOc1ccc(N)cc1N,cell number change,,33.5%
same,AC50,[1],"3.26 µM [rising, full curve]"
same,AC50,[2],"4.11 µM [rising, full curve]"
